# In patent US11458138B2 (Novartis AG, priority 2017, dated 2022):
# Legend:
# [1] = Residual compound estimation study, LSC washout (LC-MS); parameters: species or system human; settings: expanded LSCs; for compound concentration in the Cell Pellet / compound in the Cell Pellet (pg/cell): PostWash_Pellet, replicates 1-3, LC-MS; for Avg of compound (pg/cell) in the Cell Pellet: average of PostWash_Pellets 1-3
# [2] = Residual compound estimation study, CEC washout (LC-MS); parameters: species or system human
SMILES,compound concentration in the Cell Pellet [1],compound in the Cell Pellet (pg/cell) [1],Avg of compound (pg/cell) in the Cell Pellet [1],"compound in the Cell Pellet (pg/cell) ([2]; PostWash_Pellet, replicates 1-3, LC-MS)",Avg of compound (pg/cell) in the Cell Pellet ([2]; average of PostWash_Pellets 1-3)
"CC(C)N(C)c1nc(-c2ccncc2)nc2cnccc12 [Example 5, N-methyl-N-(propan-2-yl)-2-(pyridin-4-yl)pyrido[3,4-d]pyrimidin-4-amine]",21.733 nM and 46.529 nM,0.00061 pg/cell and 0.00038 pg/cell and 0.0015 pg/cell,0.00083 pg/cell,,
"CC(C)(O)COCC(C)(C)Nc1nc(-c2ccncc2)nc2cnccc12 [Example 12, 2-methyl-1-(2-methyl-2-{[2-(pyridin-4-yl)pyrido[3,4-d]pyrimidin-4-yl]amino}propoxy)propan-2-ol]",14.443 nM,0.000136 pg/cell and 0.000264 pg/cell and 0.000134 pg/cell,0.000178 pg/cell,,
"C[C@H](N(C)c1nc(-c2ccncc2)nc2cnccc12)C(F)(F)F [Example 48a, N-methyl-2-(pyridin-4-yl)-N-[(2S)-1,1,1-trifluoropropan-2-yl]pyrido[3,4-d]pyrimidin-4-amine]",,,,0.13 × 10^−6 pg/cell and 2.3 × 10^−6 pg/cell and 2.1 × 10^−6 pg/cell,1.5 × 10^−6 pg/cell
"CC(C)(C)Nc1cc(-c2ccncc2)nc2cnccc12 [Example 261, N-(tert-butyl)-2-(pyridin-4-yl)-1,7-naphthyridin-4-amine]",6.941 nM and 11.008 nM,0.0000043 pg/cell and 0.000095 pg/cell and 0.00015 pg/cell,0.000083 pg/cell,,

# Values joined by “and” are separate entries in the source; they are usually repeats but may differ in a detail not shown here. Equal values may be shown once.
